Test results published in patent US11667678B2, “Peptides for the treatment of COVID-19” (priority 2019, dated 2023).
Part of at least one peptide drawing is inferred or uncertain, most often the ends. Peptide text beside a SMILES is read from it.

Chains of the proteins cited; added tags and fusions are not shown.
UniProt Q9BYF1, whole entry, looked up: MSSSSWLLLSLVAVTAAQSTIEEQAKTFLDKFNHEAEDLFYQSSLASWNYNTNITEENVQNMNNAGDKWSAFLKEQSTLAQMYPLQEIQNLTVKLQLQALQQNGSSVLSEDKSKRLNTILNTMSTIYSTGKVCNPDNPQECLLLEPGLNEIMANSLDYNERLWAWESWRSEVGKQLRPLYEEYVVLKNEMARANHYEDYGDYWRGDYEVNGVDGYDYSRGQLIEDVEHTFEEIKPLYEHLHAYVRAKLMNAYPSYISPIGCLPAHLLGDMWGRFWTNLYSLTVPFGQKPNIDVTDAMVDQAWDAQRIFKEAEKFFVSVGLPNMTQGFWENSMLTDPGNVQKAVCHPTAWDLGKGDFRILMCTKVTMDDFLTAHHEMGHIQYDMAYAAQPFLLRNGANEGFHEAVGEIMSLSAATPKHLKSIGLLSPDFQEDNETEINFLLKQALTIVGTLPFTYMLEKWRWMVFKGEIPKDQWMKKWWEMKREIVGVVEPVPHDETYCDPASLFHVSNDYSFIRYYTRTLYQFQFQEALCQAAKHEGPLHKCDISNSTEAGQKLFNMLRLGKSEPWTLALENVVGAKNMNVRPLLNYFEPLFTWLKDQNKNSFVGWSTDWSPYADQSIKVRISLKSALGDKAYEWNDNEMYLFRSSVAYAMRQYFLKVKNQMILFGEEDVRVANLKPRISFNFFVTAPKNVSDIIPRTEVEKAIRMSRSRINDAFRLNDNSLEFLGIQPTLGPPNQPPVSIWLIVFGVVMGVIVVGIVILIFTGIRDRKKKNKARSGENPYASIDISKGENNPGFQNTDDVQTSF

How the values were obtained:
[1] = test system: human A549 lung cells stimulated with recombinant SARS-CoV-2 spike S1; type: cell-based
[2] = test system: human A549 lung cells stimulated with HIV-1 Tat; type: cell-based
[3] = test system: SARS-CoV-2 spike S1-intoxicated C57/BL6 mice; details: mouse, in vivo
[4] = test system: human A549 lung cells stimulated with poly IC; type: cell-based
[5] = test system: human A549 lung cells stimulated with bacterial flagellin; type: cell-based
[6] = molecular target: ACE2:SARS-CoV-2 spike S1 binding (UniProt P0DTC2+Q9BYF1)

CC(C)[C@H](NC(=O)CNC(=O)[C@H](CC(N)=O)NC(=O)[C@@H](N)[C@@H](C)O)C(=O)NCC(=O)N[C@@H](Cc1ccc(O)cc1)C(=O)O [wtAIDS, TNGVGY] (H-TNGVGY-OH)
SARS-CoV-2 spike S1-mediated induction of IL-6 and IL-1β (mRNA) [1]: inhibited | expression of IL-6 and IL-1β induced by HIV-1 Tat [2]: remained unable to decrease | ECG (cardiac arrhythmias) [3]: normalization | SARS-CoV-2 spike S1-induced hypolocomotion (locomotor activities, rotorod) [3]: improved | body temperature (fever) [3]: normalized | heart rate, RR interval, JT interval, R amplitude, heart rate variability, QRS interval and QT interval [3]: stabilization | level of IL-6 mRNA and protein as well as IL-1β mRNA in lungs [3]: decreased | level of serum IL-6 [3]: lowered | lung neutrophil infiltration [3]: reduced | expression of IL-6 and IL-1β induced by poly IC [4]: remained unable to decrease | expression of IL-6 and IL-1β induced by flagellin [5]: remained unable to decrease | SARS-CoV-2 spike S1 binding to immobilized ACE2 [6]: strongly inhibited
